Results: patent US20070190051A1
These are yes or no findings as the source states them, for the method shown. Some binding calls cover weakened binding; strength is not graded here.

Protein sequences, listed by entry. Tags and fused reporters are not part of them. Lines headed by an entry give the natural chain unless they say otherwise; changes in a name come on top. Chains listed by the source or under a name are the forms on record and can include a tag or linker.
cynomolgus CD40 on B cells (G7PG38, form named): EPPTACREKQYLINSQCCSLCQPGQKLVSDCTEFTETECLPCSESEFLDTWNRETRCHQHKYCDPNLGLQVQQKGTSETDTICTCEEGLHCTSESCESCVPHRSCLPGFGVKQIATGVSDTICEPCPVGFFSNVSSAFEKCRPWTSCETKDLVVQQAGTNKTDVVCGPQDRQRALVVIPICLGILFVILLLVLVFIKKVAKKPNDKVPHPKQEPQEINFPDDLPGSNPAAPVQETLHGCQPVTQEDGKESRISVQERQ
rhesus CD40 on B cells (F6SNI1, form named): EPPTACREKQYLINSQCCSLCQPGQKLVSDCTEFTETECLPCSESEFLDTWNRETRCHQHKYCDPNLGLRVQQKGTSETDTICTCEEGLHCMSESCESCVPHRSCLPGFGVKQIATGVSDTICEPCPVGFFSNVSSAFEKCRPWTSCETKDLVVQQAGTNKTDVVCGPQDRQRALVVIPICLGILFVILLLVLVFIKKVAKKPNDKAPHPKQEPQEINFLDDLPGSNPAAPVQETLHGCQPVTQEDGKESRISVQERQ

B1: monoclonal antibody 3.1.1 (antibody, human IgG2, kappa, V domains shown)
VH: QVQLVESGGGVVQPGRSLRLSCAASGFTFSSYGMHWVRQAPGKGLEWVAVISKDGGNKYHADSVKGRFTISRDNSKNALYLQMNSLRVEDTAVYYCVRRGHQLVLGYYYYNGLDVWGQGTTVTVSS
VL: DIVLTQSPLSLPVTPGEPASISCRSSQSLLYSNGYNFLDWYLQKPGQSPQLLIYLGSNRASGVPDRFSGSGSGTDFTLKISRLEAEDVGVYYCMQALQTPRTFGQGTKVEIKR
B2: monoclonal antibody 10.8.3 (antibody, human IgG2, kappa, V domains shown)
VH: QVQLQESGPGLVKPSETLSLTCTVSGGSISSYYWIWIRQPAGKGLEWIGRVYTSGSTNYNPSLKSRVTMSVDTSKNQFSLKLSSVTAADTAVYYCARDGLYRGYGMDVWGQGTTVTVSS
VL: DIQMTQSPSSVSASVGDRVTITCRASQPISSWLAWYQQKPGKAPKLLIYSASGLQSGVPSRFSGSGSGTDFTLTISSLQPEDFATYYCQQTDSFPLTFGGGTKVEIKR

Tests used:
[1] = target: cynomolgus CD40 on B cells (cynomolgus) (UniProt G7PG38); assay: FACS, whole blood B cells
[2] = target: rhesus CD40 on B cells (rhesus) (UniProt F6SNI1); assay: FACS, whole blood B cells

Binder | binding [1] | binding [2]
B1 | binds | binds
B2 | binds | binds
